Data published in PubChem BioAssay AID1662 (Broad Institute, 2009).
Screen size: about 300,000 compounds; about 4,000 (1.3%) were called active. Inconclusive results, whose numbers are uncertain, are shown with a selection of clear calls.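 Rule for the calls: active = mean replicate score, as percent of positive control median, at least 50; inconclusive = mean below 50 but one replicate at or above 50; inactive = mean and every replicate below 50.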

Assay: S. pyogenes SKKanGAS growth inhibitors in kanamycin, primary screen, streptokinase expression inhibitor project, SKKanGAS strain, BacTiter-Glo luminescence (AID 1662);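 note: strain carries kanamycin resistance gene driven by streptokinase promoter and grows in 40 µg/ml kanamycin; loss of luminescence reflects streptokinase promoter inhibition or plain growth inhibition; 0% = median of DMSO wells and 100% = positive control at its reference dose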
Details: 6 h, at 7.5 µM, stronger effect = higher value

Row | Compound | inhibition
1 | CC(C)(C)c1ccc(O)c(N=Cc2c(O)ccc3ccccc23)c1 | active: 86.7%
2 | O=C(N/N=C/c1c(O)n(Cc2ccc(F)cc2)c(=O)[nH]c1=O)c1ccccc1O | active: 97.2%
3 | C/C(=N\NC(=O)c1ccccc1O)c1c(O)n(C2CCCCC2)c(=O)[nH]c1=O | active: 49.7%
4 | Cn1cccc1CNCCc1ccccc1F | inactive: 8.92%
5 | CCN(CC)c1ccc(CNCCc2ccc(F)cc2)cc1 | inactive: -5.02%
6 | Cc1nn(Cc2ccccc2)c(C)c1C(=O)NC1CCCc2ccccc21 (centres undefined) | inactive: 3.11%
7 | CCCCn1c(=O)c(C(=O)Nc2nnc(C(C)C)s2)c(O)c2ccccc21 | active: 94.8%
8 | CC1Oc2cc3c(-c4c(O)cc(O)c5c(O)c6c(cc45)OC(C)C(C)C6=O)c(O)cc(O)c3c(O)c2C(=O)C1C (centres undefined) | active: 107%
9 | Cc1ccc(C(O)(c2ccc(C)c(C)c2)C2CN3CCC2CC3)cc1C (centres undefined) | inactive: 8.72%
10 | O=c1[nH]c(CN2CC=C(c3ccccc3)CC2)nc2scc(-c3cccs3)c12 | inconclusive: 40.1%
11 | COC(=O)C1=C(c2ccccc2)C[C@@H]2CC[C@H]1N2C(=O)NCC1CC1 | inactive: 0.782%
12 | COc1ccc(N2C(=O)/C(=C/c3ccc(C)o3)C(=O)NC2=S)cc1 | inactive: -10.7%
13 | CC12CC[C@H]3[C@@H](CCC4(O)C[C@H](O)CCC34/C=N/NC(=O)c3ccccc3Cl)C1(O)CCC2C1=CC(=O)OC1 (some centres undefined) | inactive: 4.63%
14 | O=C(c1cc(C(=O)NCc2ccccc2)c(=O)n(Cc2ccccc2)c1)c1cc(Cl)ccc1O | inactive: 25.7%
15 | c1ccc2sc(C3CCNCC3)nc2c1 | inactive: 0.748%
16 | O=[N+]([O-])c1ccc(NCc2ccc(Cl)cc2)c2ccncc12 | inconclusive: 46%
17 | CCn1c(O)c(/C=N/N2CCOCC2)c(=O)n(CC)c1=S | inactive: 4.07%
18 | CCC(C)n1c(O)c(/C=N/Nc2ccccc2)c(=O)[nH]c1=S (centres undefined) | inconclusive: 32.8%
19 | CC(C)(C)NC(=O)C1CC2CCCCC2CN1 (centres undefined) | inconclusive: 49%
20 | CN1C(=O)/C(=C/c2cccn2-c2ccc3ccccc3c2)C(=O)NC1=S | inconclusive: 35.9%
21 | COc1ccc(NP(=O)(Oc2ccc(Cl)cc2)Oc2ccc(Cl)cc2)cc1OC | inconclusive: 47.5%
22 | O=C(c1cc(-c2ccccc2)on1)N1CCC2(CC1)OCCO2 | inconclusive: 18.5%
23 | NCCCCCC(=O)OC1N=C(c2ccccc2Cl)c2cc(Br)ccc2NC1=O (centres undefined) | inactive: -7.38%
24 | CCOP(=O)(Cc1ccc(C(=O)CC)o1)OCC | inconclusive: 30.8%
25 | Cc1ccc(C(C)C)c(OCC#CCN2CCCC2)c1 | inactive: 14.5%
26 | COCc1cc(OC(=O)N(C)C)nc2c1c(C)nn2C | inactive: -3.13%
27 | O=C(c1cc(F)ccc1F)C1CCCN(CCCc2ccccc2)C1 (centres undefined) | inactive: 0.63%
28 | O=c1c2ccccc2nc(/C=C/c2ccc([N+](=O)[O-])o2)n1-c1ccc(O)cc1 | inactive: 8.73%
29 | CC(=O)Nc1ccccc1C(=O)OCc1ccc(F)cc1 | inactive: -4.26%

Look-ups from the results shown:
In inhibition, O=C(N/N=C/c1c(O)n(Cc2ccc(F)cc2)c(=O)[nH]c1=O)c1ccccc1O is listed with active: 97.2%
In inhibition, O=C(c1cc(C(=O)NCc2ccccc2)c(=O)n(Cc2ccccc2)c1)c1cc(Cl)ccc1O is listed with inactive: 25.7%
